This passage reports binding results from publication PMC4409382, “Structural Analysis of the 14-3-3ζ/Chibby Interaction Involved in Wnt/β-Catenin Signaling” (PLoS ONE, 2015).

The test addresses T1, 14-3-3ζ (human, full-length) (human, UniProt P63104 1-245).
T1 construct: N-terminal glycine retained after TEV cleavage of the His tag; 14-3-3ζ, human, ORF bought from GeneCopoeia, in Gateway pDEST17; full-length; Dimer in the crystal; the ITC stoichiometry counts on the 14-3-3 monomer; also called WT 14-3-3ζ; source: E. coli BL21 (DE3) pLysS, purified (Ni Sepharose, TEV cleavage, second Ni Sepharose pass); not shown: His tag, N-terminal, cleaved
T1 sequence: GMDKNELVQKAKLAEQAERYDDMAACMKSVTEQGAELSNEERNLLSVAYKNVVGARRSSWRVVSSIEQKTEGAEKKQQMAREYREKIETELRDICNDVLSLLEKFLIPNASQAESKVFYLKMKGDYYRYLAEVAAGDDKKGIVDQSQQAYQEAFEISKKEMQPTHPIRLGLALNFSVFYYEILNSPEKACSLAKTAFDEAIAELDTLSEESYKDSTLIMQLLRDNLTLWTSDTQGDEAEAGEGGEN
Briefly: condition: ~1-2 mM peptide titrated into ~100-200 uM 14-3-3ζ (typical experiment); ITC; VP-ITC, 25°C; ~1-2 mM peptide titrated in 5 uL aliquots into ~100-200 uM 14-3-3ζ in the cell; 50 mM sodium phosphate, 100 mM NaCl, 1 mM DTT, pH 6.8; one-site model; in duplicate; both purified.

No constants are given. Whether binding was seen depends on the method and setting.

With KTPPRKSADLSNL [Cby S20D 13-mer], the binding entry is “no binding”.

As for KTPPRKSAELSNL [Cby S20E 13-mer], the binding entry is “no binding”.
